Source: PubChem BioAssay AID2685 (National Center for Advancing Translational Sciences (NCATS), 2010)
The other results are listed elsewhere or left out. Further columns of the screen follow, without active or inactive calls. Compounds called inactive in the main read-out are mostly missing here. Potencies come from curve fits of mixed quality, noted in brackets.

Experiment: qHTS Assay for Lipid Storage Modulators in Drosophila S3 Cells;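 for cell number change: cells counted by Cell Tracker Red CMTPX staining in the red channel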
Settings: BODIPY lipid droplet fluorescence, 18-24 h; for cell number change: measured here: cell count max response, cells fed with added oleic acid
Procedure, shortened: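 Drosophila S3 cells got compounds at several concentrations plus oleic acid (400 uM solution). Laser-scanning cytometry with 488 nm excitation read lipid droplets at 500-530 nm and cells at 575-640 nm. Percent activity was relative to 20 uM Triacsin C.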

[1] = measured here: lipid fluorescence (Fed channel) AC50, cells fed with added oleic acid
[2] = measured here: cell number channel AC50, cells fed with added oleic acid

| Structure (SMILES) | cell number change | AC50 [1] | AC50 [2] |
| --- | --- | --- | --- |
| COC(=O)C1=C(c2ccc(OC)c(OC)c2)C[C@@H]2CC[C@H]1N2C(=O)NC(C)C | 11.2% | 2.59 µM [rising, full curve] | – |
| CCC(=NCCN1CCOCC1)c1c(O)n(C2CCCCC2)c(=O)[nH]c1=O | -8.86% | – | – |
| Cc1nn(-c2ccccc2)c(Cl)c1C1C(C#N)=C(N)Oc2c1c(=O)oc1ccccc21 (stereo unspecified) | -16.9% | 0.651 µM [rising, full curve] | – |
| COc1ccc(S(=O)(=O)NCc2ccc(C(=O)N3CCC4(CC3)OCCO4)cc2)cc1 | -1.3% | 0.13 µM [falling, full curve, poor fit] | – |
| CC(C)CCn1c(N)c(C(=O)OCC2CCCO2)c2nc3ccccc3nc21 (stereo unspecified) | – | 0.206 µM [rising, full curve] | 0.411 µM [rising, full curve] |
| CN1CSC(=S)N(C)C1 | -22.3% | 4.11 µM [falling, partial curve] | – |
| N#CC(Br)Br | 6.92% | 14.6 µM [falling, partial curve, poor fit] | – |
| CC(C)c1ccc(OCC(=O)N2CCCN(C)CC2)cc1 | 7.92% | 29.1 µM [rising, single point] | – |
| O=P(Oc1ccccc1)(Oc1ccccc1)C(O)c1ccccc1 (stereo unspecified) | 1.42% | 0.00461 µM [rising, full curve, poor fit] | – |
| COC(=O)c1ccc(NC(=O)NC(=O)Oc2ccccc2)cc1 | 30.3% | 0.058 µM [rising, full curve, poor fit] | 0.0206 µM [rising, full curve, poor fit] |
| O=c1[nH]c(=O)n(-c2cccc3ccccc23)c(O)c1C=NCc1ccc2c(c1)OCO2 | 10.8% | – | 0.206 µM [rising, full curve, poor fit] |
| COc1ccc(C(=O)C2CCCN(Cc3cnc(C)s3)C2)cc1OC (stereo unspecified) | -6.98% | 32.6 µM [falling, single point] | – |
| COC(=O)C1=C(c2ccc(OC)c(OC)c2)C[C@@H]2CC[C@H]1N2C(=O)NC1Cc2ccccc2C1 | 13.3% | 6.51 µM [falling, single point] | – |
| COc1ccc(CCNCc2ccccc2)cc1 | 22.6% | 8.2 µM [rising, partial curve] | – |
| CN1CCC(O)(c2cccs2)C(C(=O)c2cccs2)C1 (stereo unspecified) | -39.6% | 4.11 µM [falling, single point] | 11.6 µM [falling, partial curve, poor fit] |
| C[C@@H]1O[C@@H](O[C@@H]2C=C3CC[C@@H]4C(CC[C@]5(C)[C@@H](c6ccc(=O)oc6)CC[C@]45O)[C@@]3(C)CC2)[C@H](O)[C@H](O)[C@H]1O (stereo partly specified) | -7.34% | 29.1 µM [falling, single point] | – |
| Cc1ccccc1-n1c(O)c(/C=N/N2CCOCC2)c(=O)[nH]c1=S | -7.94% | – | 0.461 µM [rising, full curve, poor fit] |

| Structure (SMILES) | cell number change | AC50 [1] | AC50 [2] |
| --- | --- | --- | --- |
| O=C(CCc1ccccc1)N1C[C@H]2C[C@@H](C1)c1cccc(=O)n1C2 | 16.2% | 29.1 µM [rising, single point] | – |
| COc1ccc(C(c2ccc(OC)cc2)C(Cl)(Cl)Cl)cc1 | 4.01% | 0.651 µM [falling, partial curve] | 1.16 µM [falling, partial curve, poor fit] |
| CN1CCN(c2nc(Cl)ncc2F)CC1 | -2.1% | 0.00517 µM [falling, full curve, poor fit] | – |
| Cn1c(O)c(C=NC2CC3CCC2(C)C3(C)C)c(=O)[nH]c1=O (stereo unspecified) | 14.2% | 1.3 µM [falling, full curve, poor fit] | – |
| COc1ccc(CCn2c(O)c(C=NCCCO)c(=O)[nH]c2=O)cc1OC | 6.39% | 0.00461 µM [rising, full curve, poor fit] | – |
| CN(Cc1ccccc1)C(=C(Cl)Cl)/C(=C1/NCCN1Cc1ccc(Cl)nc1)[N+](=O)[O-] | 3.09% | 0.82 µM [rising, full curve] | – |
| Cc1ccc(-n2c(O)c(C=Nc3ccc(Br)cn3)c(=O)[nH]c2=O)cc1 | -46.1% | – | 0.731 µM [falling, full curve, poor fit] |
| O=S(=O)(c1ccccc1)N1CC1c1ccccc1 (stereo unspecified) | 74.2% | 3.66 µM [falling, full curve, poor fit] | 20.6 µM [rising, single point] |
| c1ccc2sc(C3CCNCC3)nc2c1 | 8.07% | 0.184 µM [falling, full curve, poor fit] | – |
| CCC(=NCc1ccco1)c1c(O)n(C)c(=O)n(C)c1=O | 33% | 0.92 µM [rising, full curve] | 1.3 µM [rising, full curve, poor fit] |
| O=C(Cc1ccccc1)Oc1ccccc1N1C(=O)CCC1=O | -83.3% | 29.1 µM [falling, single point] | 29.1 µM [falling, single point] |
| CCC(=O)c1cc(F)c(N2CCN(CC)CC2)cc1C | -29% | 0.366 µM [rising, full curve] | 2.91 µM [falling, full curve, poor fit] |
| CCOC(=O)N(c1ccccc1)P1(=S)OCCO1 | 39.2% | 20.6 µM [rising, partial curve] | 29.1 µM [rising, single point] |
| O=C(c1cc(C(=O)NCc2ccccc2)c(=O)n(Cc2ccccc2)c1)c1cc(Cl)ccc1O | 15.3% | 0.00461 µM [rising, full curve, poor fit] | 0.731 µM [falling, single point] |
| N#CC1=C(N)Oc2c(c(=O)oc3ccccc23)C1c1ccccc1OC(=O)c1cccs1 (stereo unspecified) | -10.7% | – | – |
| CC(C)CCC1(CN2CCCC2=O)C(=O)NC(=O)NC1=O | -48.6% | 20.6 µM [falling, single point] | 14.6 µM [falling, single point] |
| O=C1NC(=O)N(Cc2ccco2)C(=O)/C1=C/c1cccn1CCOc1ccccc1Cl | -25.1% | 14.6 µM [falling, partial curve, poor fit] | – |

Quoted at random: 2 entries already listed, in no set order.

| Structure (SMILES) | cell number change | AC50 [1] | AC50 [2] |
| --- | --- | --- | --- |
| CCOC(=O)N(c1ccccc1)P1(=S)OCCO1 | 39.2% | 20.6 µM [rising, partial curve] | 29.1 µM [rising, single point] |
| Cc1nn(-c2ccccc2)c(Cl)c1C1C(C#N)=C(N)Oc2c1c(=O)oc1ccccc21 (stereo unspecified) | -16.9% | 0.651 µM [rising, full curve] | – |
